Earlier results as cited in patent US11891371B2, “Piperonylic acid derivative and preparation and application thereof” (SHENYANG SINOCHEM AGROCHEMICALS R&D CO., LTD., priority 2017, dated 2024).
Some of these results come from one statement about several compounds together.

Legend:
[1] = tested on: Spodoptera litura; conditions: 1 ppm; disclosed in U.S. Pat. No. 8,853,440B2; cited from earlier work
[2] = tested on: Plutella xylostella; conditions: 1 ppm; disclosed in U.S. Pat. No. 8,853,440B2; cited from earlier work

SMILES	mortality rates against Spodoptera litura [1]	mortality rates against Plutella xylostella [2]
CN(C(=O)c1ccccc1)c1cccc(C(=O)Nc2c(Br)cc(C(F)(C(F)(F)F)C(F)(F)F)cc2C(F)(F)F)c1F [KC2, Broflanilide]	≥ 70%	≥ 70%
O=C(Nc1cccc(C(=O)Nc2c(Br)cc(C(F)(C(F)(F)F)C(F)(F)F)cc2Br)c1F)c1ccccc1 [KC3]	≥ 70%	≥ 70%
